Laboratory results as given in patent US20250000988A1 (priority 2021, published 2025).

Assay: general procedure: Fmoc solid-phase peptide synthesis; MBHA resin (sub: 0.27 mmol/g)
Conditions: whole synthesis, scale of the general procedure 0.5 mmol

Substance | final purity (method not given)
(β-Ala)-Sar10-Ala (hArg) Asp-SEQ ID NO:4 (Hcys-HyP-Leu-Val-Asn-Pro-Leu-Cys-Leu-His-Pro-(D-Asp)-Trp-hArg-Cys), molecular scaffold: TATA | 96.8%
(β-Ala)-Sar10-Ala (hArg) Asp-SEQ ID NO:2 (Cys-HyP-Leu-Val-Asn-Pro-Leu-Cys-Leu-His-Pro-(D-Asp)-Trp-hArg-Hcys), molecular scaffold: TATA | 95.8%
